Data as given in patent US20250115597A1, “TYK2 INHIBITORS AND COMPOSITIONS AND METHODS THEREOF” (LYNK PHARMACEUTICALS CO. LTD., priority 2021, published 2025).
Structures were worked out from names or drawings and are uncertain.

The chains behind the UniProt entries cited, without tags or fusion partners.
UniProt P29597, whole entry P760L: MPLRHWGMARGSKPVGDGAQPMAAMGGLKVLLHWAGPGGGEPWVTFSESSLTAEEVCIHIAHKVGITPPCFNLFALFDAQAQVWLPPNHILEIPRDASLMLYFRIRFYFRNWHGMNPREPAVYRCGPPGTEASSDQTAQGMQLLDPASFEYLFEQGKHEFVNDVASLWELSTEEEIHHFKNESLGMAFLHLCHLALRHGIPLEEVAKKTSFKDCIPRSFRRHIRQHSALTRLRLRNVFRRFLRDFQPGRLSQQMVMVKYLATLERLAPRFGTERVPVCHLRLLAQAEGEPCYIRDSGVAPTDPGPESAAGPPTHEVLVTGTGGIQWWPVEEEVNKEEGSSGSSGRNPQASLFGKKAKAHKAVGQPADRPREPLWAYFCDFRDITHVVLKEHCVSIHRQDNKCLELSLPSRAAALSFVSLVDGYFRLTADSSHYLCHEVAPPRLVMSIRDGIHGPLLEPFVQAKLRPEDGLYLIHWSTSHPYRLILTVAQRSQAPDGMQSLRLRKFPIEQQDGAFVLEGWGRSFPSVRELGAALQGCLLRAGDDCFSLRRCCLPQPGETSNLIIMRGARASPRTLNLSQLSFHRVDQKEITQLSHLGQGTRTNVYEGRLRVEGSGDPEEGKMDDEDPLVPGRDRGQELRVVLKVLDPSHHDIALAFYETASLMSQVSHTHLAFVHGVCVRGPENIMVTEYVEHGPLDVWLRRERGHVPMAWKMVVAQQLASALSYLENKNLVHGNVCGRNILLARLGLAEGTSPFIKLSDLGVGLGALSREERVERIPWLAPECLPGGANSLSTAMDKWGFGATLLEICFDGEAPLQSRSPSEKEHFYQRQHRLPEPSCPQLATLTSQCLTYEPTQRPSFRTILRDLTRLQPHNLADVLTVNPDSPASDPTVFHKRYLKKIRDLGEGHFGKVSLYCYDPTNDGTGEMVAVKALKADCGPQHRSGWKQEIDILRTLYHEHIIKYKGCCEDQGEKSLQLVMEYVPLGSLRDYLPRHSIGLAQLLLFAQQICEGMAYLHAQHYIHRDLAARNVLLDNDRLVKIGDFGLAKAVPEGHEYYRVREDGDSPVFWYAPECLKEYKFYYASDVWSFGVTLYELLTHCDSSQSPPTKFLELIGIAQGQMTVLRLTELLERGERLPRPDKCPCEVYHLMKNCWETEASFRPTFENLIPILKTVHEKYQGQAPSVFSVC

Biological target: Ba/F3-FL-TYK2-P760L cells (Homo sapiens, UniProt P29597, P760L, cells depend on it)
Experiment: Anti-proliferative assay, Ba/F3-FL-TYK2-P760L cells (Cell-Titer Glo)
Type: cell-based
Conditions: read-out: BaF3-FL-T2P760L IC50, 72 h

| Structure (SMILES) | GI50 [nM] |
| --- | --- |
| [2H]C([2H])([2H])NC(=O)c1cnc2cc1Nc1cc(cc(-c3ccn(C4CC4)n3)c1OC)COCc1nc(ccc1F)N2 | 138 |
| [2H]C([2H])([2H])NC(=O)c1cnc(NC(=O)C2CC2)cc1Nc1cn(CCOC)c2ccn(C(C)C(F)(F)F)c(=O)c12 (single isomer, unassigned) | 764 |
